Measurements reported in doi:10.1101/2025.02.28.640866.
These are yes or no findings as the source states them, for the method shown. Binding seen in cells or lysates may run through a third protein. Some entries that bind do so weakly or less than the wild type. Where a sequence is shown, tags or fusion partners need not be part of it.

Target: T1, UNC-112::YFP-N (C. elegans) (UniProt Q18685)
T1 sequence: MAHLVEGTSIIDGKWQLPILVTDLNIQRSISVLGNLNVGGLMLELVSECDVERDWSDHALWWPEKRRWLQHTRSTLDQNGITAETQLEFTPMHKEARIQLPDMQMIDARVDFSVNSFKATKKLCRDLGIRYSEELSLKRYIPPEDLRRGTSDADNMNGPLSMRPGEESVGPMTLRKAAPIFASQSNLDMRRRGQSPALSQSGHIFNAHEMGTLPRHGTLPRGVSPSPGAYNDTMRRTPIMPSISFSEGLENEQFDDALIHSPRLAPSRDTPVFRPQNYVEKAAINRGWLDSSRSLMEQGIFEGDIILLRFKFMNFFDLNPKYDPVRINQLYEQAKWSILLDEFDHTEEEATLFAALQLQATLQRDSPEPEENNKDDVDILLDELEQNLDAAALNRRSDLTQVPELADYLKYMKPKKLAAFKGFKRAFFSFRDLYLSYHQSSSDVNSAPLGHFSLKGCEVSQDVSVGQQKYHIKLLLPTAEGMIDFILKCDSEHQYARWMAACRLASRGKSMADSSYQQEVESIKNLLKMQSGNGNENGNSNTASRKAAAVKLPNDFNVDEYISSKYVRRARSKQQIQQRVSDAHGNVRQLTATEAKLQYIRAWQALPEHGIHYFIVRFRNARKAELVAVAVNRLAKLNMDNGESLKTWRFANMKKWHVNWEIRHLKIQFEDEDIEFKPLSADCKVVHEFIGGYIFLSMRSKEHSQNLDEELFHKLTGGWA
Test: split reporter

binding: binds
B1: PAT-4::YFP-C (protein, UniProt Q9TZC4 1-466)
chain: MSLSTHYHAHKPNVPIIMEDVFGWVREGNAFQVRVWLDDHEHDLNVGDDHAFSLLHWAAKGGHVAIAEMLLSRGARVNSTNMGDDTSLHLAAAHGHRQIVVKLLSRKADVNATNEHGMTPLHYACFWGYEQIAEDLISCGAAVNVCNKKGMTPLDVCQPMCKNTILEIAQEHGQSPNDRVPFKDTTWKGTKSRTRDATLSRYTGVDVSSLNLITKIAESHSGELWRGKWQGNDIVARILNVQEVTARISRDFQTEFPALRIFAHPNICAVLAAANQPPNLVIISQYMPFGSLYNVLHEQSSVVIDHGQAVRFALDIARGMSYLHSLDPMLLRFYLSSKHVVVDEELTAKLSMADTKFSFQEVGKAYSPAWMSPEALSRAPEDLNIRAADMWSFAILLWELNTREVPFSDLPPMECGMKIALEGLRVHIPPGIARNMNRLMNICMNEDPGRRPNFDQIIPILERMIL
